From the supplement of paper PMC3334620
Over roughly 33,000 sequences, “E-score (-0.5 to 0.5)” has its median near -0.015; the highest 2% begin near 0.3. The list shows a part of the results.

target: T1, Abf1 (UniProt P14164); assay: PBM E-score (8-mer binding enrichment) (E-score (-0.5 to 0.5)); higher = stronger / more preferred TF binding; settings: protein concentration: 200 nM; construct: GST-full length
T1 sequence: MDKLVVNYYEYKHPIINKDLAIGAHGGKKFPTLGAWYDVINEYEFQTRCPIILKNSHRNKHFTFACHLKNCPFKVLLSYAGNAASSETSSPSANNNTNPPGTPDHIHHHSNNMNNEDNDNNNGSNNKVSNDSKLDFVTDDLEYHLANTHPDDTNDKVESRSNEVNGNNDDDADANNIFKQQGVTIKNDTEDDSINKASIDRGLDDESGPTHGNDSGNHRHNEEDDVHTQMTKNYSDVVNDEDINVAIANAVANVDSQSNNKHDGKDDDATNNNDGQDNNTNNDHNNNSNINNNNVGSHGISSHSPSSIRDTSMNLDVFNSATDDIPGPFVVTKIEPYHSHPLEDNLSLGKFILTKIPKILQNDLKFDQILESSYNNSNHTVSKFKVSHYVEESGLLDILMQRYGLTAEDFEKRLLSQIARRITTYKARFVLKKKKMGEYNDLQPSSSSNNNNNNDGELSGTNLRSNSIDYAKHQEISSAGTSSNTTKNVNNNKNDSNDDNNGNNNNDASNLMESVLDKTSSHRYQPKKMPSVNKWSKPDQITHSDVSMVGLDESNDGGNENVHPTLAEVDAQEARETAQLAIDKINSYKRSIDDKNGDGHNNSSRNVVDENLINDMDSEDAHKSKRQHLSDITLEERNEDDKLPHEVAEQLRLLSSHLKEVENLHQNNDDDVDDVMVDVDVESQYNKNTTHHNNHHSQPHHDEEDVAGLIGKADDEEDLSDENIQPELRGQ
Method in brief: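 Detection of bound protein used fluorescent anti-GST, with scans normalised by masliner. The proteins were GST-tagged yeast transcription factors applied at about 100-200 nM to universal all-10-mer Agilent arrays made double-stranded by primer extension. Each ungapped eight-base word, pooled with its reverse complement, was scored with an E-score from the Universal PBM Analysis Suite.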

Sequence | PBM E-score
AATAATAC | 0.233
CCTGTCTC | -0.123
AAGTGCAC | 0.0382
AGATCATG | 0.262
ACGCCGGG | -0.0153
ACCCAGCT | -0.0896
CAATGTAG | -0.136
GACGTAGA | 0.0745
AGGTCACC | 0.282
AGCCAGAG | -0.0331
CTCCGTAC | 0.22
CGATAAAG | 0.228
AGTCATGA | 0.149
ACACGCTA | -0.0294
GCGACTTA | -0.0826
ACACTCGC | 0.113
ACAGAGAC | 0.0071
CGCTAAGC | 0.109
AGTCATTA | 0.037
AGGACTGA | 0.00596
GCCAATCA | -0.138
GAGGCAGC | -0.302

Sequence | PBM E-score
GAGTTGGA | -0.0192
GACATCCA | -0.0512
GTAGGTCA | 0.0845
CGGTGGTA | 0.025
CATATCGC | 0.253
GGGGGAAC | -0.408
ACCTGCAC | -0.109
AAACCACG | 0.0243
CCCGAGAC | -0.0393
GAAATTGC | -0.0782
GGTTACAC | 0.11
ATTTGACG | 0.2
ATCAGATG | -0.104
GAACCCAA | 0.103
GCAACTCC | -0.257
CCTCCCTC | -0.157
AATGCGGC | -0.00373
CGTGATAC | 0.23
GGATCTCA | 0.0604
GTATGGGA | 0.0144
AGGTAGAC | -0.249
ATAGGGTC | -0.135

Sequence | PBM E-score
GACTTCTC | 0.167
CATTGTCA | 0.185
CGAAAGCA | 0.0505
TGCACCCA | 0.0213
CAACGTGG | 0.0349
CCAACCCC | -0.224
ACCATTAC | 0.0428
TATATCGA | 0.171
GAGCGGAC | -0.162
ATTCACTA | -0.00796
GTGTACCA | 0.125
CCAGGACC | -0.2
CTCGCGTA | -0.194
GATGTGGC | -0.167
ATCTGGGG | -0.181
AAAGCCCT | -0.187
GCGTCCCA | -0.0154
TAGTATAA | 0.269
CGTAAGAC | 0.104
AACCTCCG | -0.13
TGAAACAA | 0.0794
TACGCAGA | 0.00755

Sequence | PBM E-score
CCCTGAGA | -0.214
ATCCATGC | -0.0117
CCAACGTA | 0.2
GGACAACC | -0.0223
CGAGGCCC | -0.159
CTAACGAC | 0.263
AAGATCCG | -0.132
GGTTTAGA | -0.152
ACTGTGCC | -0.0642
ATACGGCA | 0.376
AACACTAG | 0.151
ACGTGTAT | 0.0345
CTAGATAA | 0.109
ATCCTCTG | -0.0885
AATTGCAT | -0.017
CCGCGCTA | 0.0165
ATATCAAT | 0.204
ACATCTGA | -0.0545
GCGATACA | 0.139
ATGGCCCC | -0.268

Some of the entries so far, as tab-separated lines:
Sequence	PBM E-score
GACGTAGA	0.0745
AGGTCACC	0.282
AGCCAGAG	-0.0331
CTCCGTAC	0.22
CGATAAAG	0.228
AGTCATGA	0.149
